Source: patent EP4793288A1
Results are given in words; binding and its absence hold for the method and conditions named. Some results given as binding are weak or reduced against the parent protein; the word gives no strength.

B1: T22A4 (antibody, human IgG1, kappa, V domains shown)
VH: EVQLVESGGNWVQPGGSLRLSCAASGFSFRSYAMSWVRQAPGKGLEWVSSISGSGNSELYAGSVKGRFTISRDNSKNTLSLQLHSLRAEDTAMYYCAKFSAAVGFLPDYFDSWGQGTLVTVSS
VL: ELTLTQSPSSLSASVGDRVTITCQASHDISKYLNWYQQKSGKAPKLLIYDASNLETGVPSRFSGSGSGTDFTLTISSLQPEDFATYYCQQSYRTPLTFGGGTKLEIKR
B2: T23D5 (antibody, human IgG1, kappa, V domains shown)
VH: QVQLQESGPGLVKPSETLSLTCTVSGGSIDRSSHYWGWIRQPPGKGLEWLGSIYYSGITYYNPSLKSRVTISVDTSRNQFSLTLSSVTAADTAVYYCARHGSYDSWAGRYKWDRFDPWGQGTPVTVSS
VL: ELQMTQSPSSLSASVGDRVTITCQASHDISKYLNWYQQKSGKAPKLLIYDASNLETGVPSRFSGSGSGTDFTLTISSLQPEDFATYYCQQSYSTPLTFGGGTKVEIKR
B3: 2F1_LS#17 (antibody, human IgG1, kappa, V domains shown)
VH: EVQLVESGGGLVQPGGSLRLSCAASGFTFSSYAMSWVRQAPGKGLEWVSRISGSGGYIYYADSVKGRFTISRDNSKNTLYLQMNSLRAEDTAVYYCAKEGTSSYRGWMDVWGQGTLVTVSS
VL: DIQMTQSPSSLSASVGDRVTITCRASQSISNYLNWYQQKPGKAPKLLIYAASRLQSDVPSRFSGSGSGTDFTLTISSLQPEDFATYYCQQSYSTPWTFGQGTKVEIKR
B4: 2F1_LS#24 (antibody, human IgG1, kappa, V domains shown)
VH: EVQLVESGGGLVQPGGSLRLSCAASGFTFSSYAMSWVRQAPGKGLEWVSRISGSGGYIYYADSVKGRFTISRDNSKNTLYLQMNSLRAEDTAVYYCAKEGTSSYRGWMDVWGQGTLVTVSS
VL: DIQMTQSPSSLSASVGDRVTITCRASQSISNWLNWYQQKPGKAPKLLIYAASRLQSGVPSRFSGSGSGTDFTLTISSLQPEDFATYYCQQSYTSPWTFGQGTKVEIKR
B5: 2F1_LS#26 (antibody, human IgG1, kappa, V domains shown)
VH: EVQLVESGGGLVQPGGSLRLSCAASGFTFSSYAMSWVRQAPGKGLEWVSRISGSGGYIYYADSVKGRFTISRDNSKNTLYLQMNSLRAEDTAVYYCAKEGTSSYRGWMDVWGQGTLVTVSS
VL: DIQMTQSPSSLSASVGDRVTITCRASQSISNYLNWYQQKPGKAPKLLIYATSRLQSGVPSRFSGSGSGTDFTLTISSLQPEDFATYYCQQSYSFPWTFGQGTKVEIKR
B6: 2F1_LS#39 (antibody, human IgG1, kappa, V domains shown)
VH: EVQLVESGGGLVQPGGSLRLSCAASGFTFSSYAMSWVRQAPGKGLEWVSRISGSGGYIYYADSVKGRFTISRDNSKNTLYLQMNSLRAEDTAVYYCAKEGTSSYRGWMDVWGQGTLVTVSS
VL: DIQMTQSPSSLSASVGDRVTITCRASQSISRYLNWYQQKPGKAPKLLIYATSNLHSGVPSRFSGSGSGTDFTLTISSLQPEDFATYYCQQSYTSPWTFGQGTKVEIKR
B7: 2F1HS6LS#46 (antibody, human IgG1, kappa, V domains shown)
VH: EVQLVESGGGLVQPGGSLRLSCAASGFTFSDYAMSWVRQAPGKGLEWVSRISQSGSYTYYADSVKGRFTISRDNSKNTLYLQMNSLRAEDTAVYYCAKEGTSSYRGWMDVWGQGTLVTVSS
VL: DIQMTQSPSSLSASVGDRVTITCRASQSISNWLNWYQQKPGKAPKLLIYATSRLQSGVPSRFSGSGSGTDFTLTISSLQPEDFATYYCQQSYSTPWTFGQGTKVEIKR
B8: 2F1CDRH3#10 (antibody, human IgG1, kappa, V domains shown)
VH: EVQLVESGGGLVQPGGSLRLSCAASGFTFSSYAMSWVRQAPGKGLEWVSRISGSGGYKYYADSVKGRFTISRDNSKNTLYLQMNSLRAEDTAVYYCAKEGTSSYRGWMDVWGQGTLVTVSS
VL: IQMTQSPSSLSASVGDRVTITCRASQSISNYLNWYQQKPGKAPKLLIYATSTLQSGVPSRFSGSGSGTDFTLTISSLQPEDFATYYCQQSYTTPWTFGQGTKVEIKR
B9: 2F1CDRH3#17 (antibody, human IgG1, kappa, V domains shown)
VH: EVQLVESGGGLVQPGGSLRLSCAASGFTFSDYAMSWVRQAPGKGLEWVSRISGTGSYKYYADSVKGRFTISRDNSKNTLYLQMNSLRAEDTAVYYCAKEGTSTYRGWMDVWGQGTLVTVSS
VL: DIQMTQSPSSLSASVGDRVTITCRASQSISNYLNWYQQKPGKAPKLLIYATSRLQSGVPSRFSGSGSGTDFTLTISSLQPEDFATYYCQQSYTTPWTFGQGTKVEIKR
B10: 2F1CDRH3#26 (antibody, human IgG1, kappa, V domains shown)
VH: EVQLVESGGGLVQPGGSLRLSCAASGFTFSSYAMSWVRQAPGKGLEWVSRISGSGSYTYYADSVKGRFTISRDNSKNTLYLQMNSLRAEDTAVYYCAKEGASSYRGWMDVWGQGTLVTVSS
VL: DIQMTQSPSSLSASVGDRVTITCRASQSISNYLNWYQQKPGKAPKLLIYATSRLQSGVPSRFSGSGSGTDFTLTISSLQPEDFATYYCQQSHSTPWTFGQGTKVEIKR
B11: Positive control antibody (antibody, human IgG1, kappa, V domains shown)
VH: QLQLQESGPGLVKPSETLSLTCTVSGGSISSSSTYWSWIRQPPGKGLEWIGGIAYSGSTYYNPSLKSRVTISVDTSKNQFSLKLSSVTAADTAVYYCARGVRRAVPEDYWGQGTLVTVSS
VL: EIVLTQSPGTLSLSPGERATLSCQASQAVSSNYLAWYQQKPGQAPRLLIYGASSRATGIPDRFSGSGSGTDFTLTISRLEPEDFAVYYCQQVVHSPYTFGGGTKVEIKR

These binders were tested against Recombinant HLA-G antigen (human) (UniProt P17693) (assay: ELISA, recombinant HLA-G coated, antibody from 20 nM, anti-human IgG HRP).

binding, binds:
B1, B2, B3, B4, B5, B6, B7, B8, B9, B10, B11
